Results from the supplement of paper PMC12823440, “Inhibitors supercharge kinase turnover through native proteolytic circuits” (Nature, 2025).
Structures can show the parent of a compound that is named as a salt. Some of the results follow. Hit calls seldom repeat between salt and free forms of one compound.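 Kinases, fused to nanoluciferase, were expressed in K562 cells; luminescence was measured every 4 h from 2 to 18 h as percent of control (DMSO = 100%, positive control = 0%). A time point is decreased if signal falls significantly (2 sigma). Hits were called by the authors by a rule that is not shown; the count of time points alone does not decide it.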

By UniProt entry, the sequences of proteins in these tests, tags left out. Where a name states a change or a piece, a line headed by the entry shows the natural chain unless it says otherwise.
UniProt P28482, whole entry: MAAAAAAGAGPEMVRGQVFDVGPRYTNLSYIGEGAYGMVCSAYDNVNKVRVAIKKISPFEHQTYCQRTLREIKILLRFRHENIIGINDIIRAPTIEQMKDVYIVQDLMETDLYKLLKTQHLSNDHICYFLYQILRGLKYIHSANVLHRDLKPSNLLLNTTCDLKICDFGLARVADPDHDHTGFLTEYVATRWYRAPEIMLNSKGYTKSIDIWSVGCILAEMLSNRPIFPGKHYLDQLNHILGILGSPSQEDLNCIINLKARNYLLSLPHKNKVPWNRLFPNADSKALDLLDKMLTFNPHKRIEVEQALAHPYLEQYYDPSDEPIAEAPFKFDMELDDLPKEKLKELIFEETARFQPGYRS
UniProt P31152, whole entry: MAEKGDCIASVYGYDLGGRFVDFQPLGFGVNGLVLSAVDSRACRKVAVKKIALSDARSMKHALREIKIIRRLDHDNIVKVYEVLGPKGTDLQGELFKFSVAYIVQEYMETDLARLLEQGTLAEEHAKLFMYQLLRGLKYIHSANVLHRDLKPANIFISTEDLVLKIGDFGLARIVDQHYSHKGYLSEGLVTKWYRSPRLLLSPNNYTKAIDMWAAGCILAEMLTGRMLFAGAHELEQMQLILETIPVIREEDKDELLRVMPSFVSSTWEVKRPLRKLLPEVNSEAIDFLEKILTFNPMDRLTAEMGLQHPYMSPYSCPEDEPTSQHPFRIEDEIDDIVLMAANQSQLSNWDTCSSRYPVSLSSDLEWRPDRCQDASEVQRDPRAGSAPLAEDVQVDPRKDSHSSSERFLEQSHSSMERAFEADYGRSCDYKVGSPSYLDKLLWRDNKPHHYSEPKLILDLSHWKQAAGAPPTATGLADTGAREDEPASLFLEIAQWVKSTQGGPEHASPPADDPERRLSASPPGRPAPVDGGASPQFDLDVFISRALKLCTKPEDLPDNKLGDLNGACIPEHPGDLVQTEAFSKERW
UniProt Q9BUB5: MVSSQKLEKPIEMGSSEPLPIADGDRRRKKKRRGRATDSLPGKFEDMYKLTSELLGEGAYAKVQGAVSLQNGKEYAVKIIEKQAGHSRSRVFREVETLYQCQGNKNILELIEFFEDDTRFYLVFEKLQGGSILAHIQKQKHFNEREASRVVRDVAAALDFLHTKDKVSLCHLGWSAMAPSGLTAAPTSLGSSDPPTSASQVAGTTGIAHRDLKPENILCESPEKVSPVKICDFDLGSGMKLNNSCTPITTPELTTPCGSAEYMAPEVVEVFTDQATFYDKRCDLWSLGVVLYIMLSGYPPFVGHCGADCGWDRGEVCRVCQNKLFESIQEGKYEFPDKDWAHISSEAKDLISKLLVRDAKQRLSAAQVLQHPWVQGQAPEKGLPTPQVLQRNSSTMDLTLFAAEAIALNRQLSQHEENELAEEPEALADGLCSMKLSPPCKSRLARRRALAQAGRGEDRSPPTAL
UniProt Q16288, whole entry, looked up: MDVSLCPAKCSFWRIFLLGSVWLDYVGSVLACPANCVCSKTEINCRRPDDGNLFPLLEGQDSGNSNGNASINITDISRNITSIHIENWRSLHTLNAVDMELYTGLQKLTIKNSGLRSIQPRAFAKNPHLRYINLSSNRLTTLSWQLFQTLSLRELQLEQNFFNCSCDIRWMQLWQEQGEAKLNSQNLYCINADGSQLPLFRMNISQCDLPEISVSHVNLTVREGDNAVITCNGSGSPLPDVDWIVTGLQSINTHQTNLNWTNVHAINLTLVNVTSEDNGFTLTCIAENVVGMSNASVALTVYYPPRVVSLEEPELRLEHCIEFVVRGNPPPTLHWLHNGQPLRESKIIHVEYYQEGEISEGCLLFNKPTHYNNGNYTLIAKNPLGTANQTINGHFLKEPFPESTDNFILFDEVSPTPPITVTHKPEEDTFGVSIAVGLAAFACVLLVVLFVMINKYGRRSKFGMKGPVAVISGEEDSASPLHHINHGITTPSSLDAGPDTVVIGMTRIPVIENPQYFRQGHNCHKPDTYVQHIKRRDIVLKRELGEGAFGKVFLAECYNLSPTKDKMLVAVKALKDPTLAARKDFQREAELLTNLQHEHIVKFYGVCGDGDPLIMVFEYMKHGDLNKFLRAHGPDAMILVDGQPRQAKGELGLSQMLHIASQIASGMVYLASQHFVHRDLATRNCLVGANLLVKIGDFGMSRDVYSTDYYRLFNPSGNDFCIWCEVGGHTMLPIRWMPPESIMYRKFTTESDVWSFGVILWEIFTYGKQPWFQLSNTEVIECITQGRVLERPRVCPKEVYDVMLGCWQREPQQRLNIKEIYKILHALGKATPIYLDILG
UniProt Q15118, whole entry, looked up: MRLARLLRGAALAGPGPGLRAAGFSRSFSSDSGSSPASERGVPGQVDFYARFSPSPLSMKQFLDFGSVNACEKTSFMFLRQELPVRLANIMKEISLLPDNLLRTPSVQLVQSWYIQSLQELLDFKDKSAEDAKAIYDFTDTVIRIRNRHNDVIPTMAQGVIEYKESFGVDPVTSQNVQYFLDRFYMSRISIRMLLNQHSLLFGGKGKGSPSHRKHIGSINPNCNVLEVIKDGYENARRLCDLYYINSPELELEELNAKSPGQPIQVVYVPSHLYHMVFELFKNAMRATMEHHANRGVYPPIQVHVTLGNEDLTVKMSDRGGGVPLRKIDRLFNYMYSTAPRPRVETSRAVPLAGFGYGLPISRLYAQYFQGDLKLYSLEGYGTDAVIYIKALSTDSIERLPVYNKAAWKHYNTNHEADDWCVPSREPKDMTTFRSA
UniProt O15530: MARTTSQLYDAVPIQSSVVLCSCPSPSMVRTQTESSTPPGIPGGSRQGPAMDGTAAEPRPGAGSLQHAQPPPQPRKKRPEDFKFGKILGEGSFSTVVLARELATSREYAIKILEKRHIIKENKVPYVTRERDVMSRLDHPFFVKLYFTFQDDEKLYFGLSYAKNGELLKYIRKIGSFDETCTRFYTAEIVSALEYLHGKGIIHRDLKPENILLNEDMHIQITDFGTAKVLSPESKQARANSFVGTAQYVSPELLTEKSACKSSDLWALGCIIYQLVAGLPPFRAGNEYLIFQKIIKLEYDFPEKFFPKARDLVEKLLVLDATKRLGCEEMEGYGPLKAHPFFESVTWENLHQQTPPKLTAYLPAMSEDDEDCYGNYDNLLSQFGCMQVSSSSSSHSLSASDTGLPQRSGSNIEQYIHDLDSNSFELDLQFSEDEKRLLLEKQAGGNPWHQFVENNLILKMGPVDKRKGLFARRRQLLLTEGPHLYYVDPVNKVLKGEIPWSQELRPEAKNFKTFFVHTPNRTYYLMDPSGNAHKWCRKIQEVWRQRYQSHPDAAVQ
UniProt Q9UBF8: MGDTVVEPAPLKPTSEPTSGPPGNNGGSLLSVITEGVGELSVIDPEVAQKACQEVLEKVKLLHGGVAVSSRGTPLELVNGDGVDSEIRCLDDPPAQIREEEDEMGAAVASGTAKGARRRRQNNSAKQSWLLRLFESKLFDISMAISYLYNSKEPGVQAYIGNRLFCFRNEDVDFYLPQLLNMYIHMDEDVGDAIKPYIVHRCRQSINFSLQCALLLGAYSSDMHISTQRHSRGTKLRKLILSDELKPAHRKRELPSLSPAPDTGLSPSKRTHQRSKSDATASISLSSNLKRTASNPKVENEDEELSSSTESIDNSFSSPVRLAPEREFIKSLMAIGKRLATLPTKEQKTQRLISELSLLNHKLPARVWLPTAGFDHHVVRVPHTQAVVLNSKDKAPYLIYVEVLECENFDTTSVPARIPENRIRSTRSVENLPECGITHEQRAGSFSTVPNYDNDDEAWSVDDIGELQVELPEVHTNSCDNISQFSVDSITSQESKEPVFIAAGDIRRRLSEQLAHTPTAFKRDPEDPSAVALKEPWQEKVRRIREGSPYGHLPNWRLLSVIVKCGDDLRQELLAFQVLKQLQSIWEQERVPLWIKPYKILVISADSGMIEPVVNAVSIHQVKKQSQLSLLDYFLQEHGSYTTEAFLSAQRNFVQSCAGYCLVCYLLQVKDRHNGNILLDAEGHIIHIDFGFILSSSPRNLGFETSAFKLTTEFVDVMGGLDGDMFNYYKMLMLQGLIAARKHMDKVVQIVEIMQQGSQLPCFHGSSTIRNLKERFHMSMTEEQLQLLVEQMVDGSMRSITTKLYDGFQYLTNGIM
UniProt Q13131: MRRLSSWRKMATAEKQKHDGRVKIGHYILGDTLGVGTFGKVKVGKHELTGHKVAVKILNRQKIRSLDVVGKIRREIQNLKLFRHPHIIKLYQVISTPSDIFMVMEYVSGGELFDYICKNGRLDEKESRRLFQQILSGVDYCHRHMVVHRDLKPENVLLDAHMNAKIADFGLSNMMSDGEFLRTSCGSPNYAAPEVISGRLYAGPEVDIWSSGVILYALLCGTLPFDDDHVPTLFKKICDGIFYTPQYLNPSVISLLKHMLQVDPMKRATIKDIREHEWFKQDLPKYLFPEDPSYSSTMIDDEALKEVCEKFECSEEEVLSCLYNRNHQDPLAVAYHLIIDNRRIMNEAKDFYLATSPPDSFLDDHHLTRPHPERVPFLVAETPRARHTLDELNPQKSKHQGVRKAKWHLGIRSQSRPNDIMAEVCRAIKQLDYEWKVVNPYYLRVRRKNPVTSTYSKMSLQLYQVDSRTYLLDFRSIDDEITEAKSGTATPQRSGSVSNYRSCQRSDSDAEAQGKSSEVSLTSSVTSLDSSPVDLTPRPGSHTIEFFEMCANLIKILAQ
UniProt Q05397, whole entry, looked up: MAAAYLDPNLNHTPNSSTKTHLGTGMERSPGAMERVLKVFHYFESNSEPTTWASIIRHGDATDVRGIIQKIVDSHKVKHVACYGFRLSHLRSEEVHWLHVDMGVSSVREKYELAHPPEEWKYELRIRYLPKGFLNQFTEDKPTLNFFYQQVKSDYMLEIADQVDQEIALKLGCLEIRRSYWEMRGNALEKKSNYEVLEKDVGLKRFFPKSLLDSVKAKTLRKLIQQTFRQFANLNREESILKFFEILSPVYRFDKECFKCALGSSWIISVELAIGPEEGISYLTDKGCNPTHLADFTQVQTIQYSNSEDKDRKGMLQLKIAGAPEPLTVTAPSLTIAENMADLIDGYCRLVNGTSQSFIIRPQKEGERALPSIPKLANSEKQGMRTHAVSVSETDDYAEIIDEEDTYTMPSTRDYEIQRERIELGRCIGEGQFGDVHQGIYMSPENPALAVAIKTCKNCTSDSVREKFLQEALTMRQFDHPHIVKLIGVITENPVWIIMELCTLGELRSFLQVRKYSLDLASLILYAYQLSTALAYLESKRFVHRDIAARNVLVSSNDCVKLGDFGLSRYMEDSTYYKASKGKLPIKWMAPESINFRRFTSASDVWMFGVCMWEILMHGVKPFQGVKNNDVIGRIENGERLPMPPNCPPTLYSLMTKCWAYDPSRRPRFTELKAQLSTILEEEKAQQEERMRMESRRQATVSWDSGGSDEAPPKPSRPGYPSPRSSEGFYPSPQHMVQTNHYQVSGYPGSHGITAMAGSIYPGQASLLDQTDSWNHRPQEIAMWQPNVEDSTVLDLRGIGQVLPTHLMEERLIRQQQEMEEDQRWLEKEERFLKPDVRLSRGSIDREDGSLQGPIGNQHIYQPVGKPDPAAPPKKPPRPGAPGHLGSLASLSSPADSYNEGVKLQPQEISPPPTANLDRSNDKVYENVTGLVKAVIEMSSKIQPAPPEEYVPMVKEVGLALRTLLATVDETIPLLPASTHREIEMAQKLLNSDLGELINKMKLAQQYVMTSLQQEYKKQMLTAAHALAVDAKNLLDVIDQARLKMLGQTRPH

What was measured:
Assay in all cases: kinase-Nluc reporter destabilization hit call (1 = scored as downregulated) (binary); higher = compound decreases kinase abundance
Conditions in all cases: K562; 2-18 h
MAPK1 = MAPK1 (UniProt P28482)
MAPK4 = MAPK4 (UniProt P31152)
MAPKAPK2 = MAPKAPK2 (UniProt P49137)
MKNK1 = MKNK1 (UniProt Q9BUB5)
NTRK2 = NTRK2 (UniProt Q16620)
NTRK3 = NTRK3 (UniProt Q16288)
PAK4 = PAK4 (UniProt O96013)
PBK = PBK (UniProt Q96KB5)
PDGFRB = PDGFRB (UniProt P09619)
PDK1 = PDK1 (UniProt Q15118)
PDPK1 = PDPK1 (UniProt O15530)
PIK4CA = PIK4CA (UniProt P42356)
PIK4CB = PIK4CB (UniProt Q9UBF8)
PLK1 = PLK1 (UniProt P53350)
PRKAA1 = PRKAA1 (UniProt Q13131)
PRKCA = PRKCA (UniProt P17252)
PTK2 = PTK2 (UniProt Q05397)
PTK2B = PTK2B (UniProt Q14289)
RAF1 = RAF1 (UniProt P04049)
[1] = biological target: RAF1_S257L (clone: RAF1_mut) (UniProt P04049)

Measured: kinase-Nluc reporter destabilization hit call

O=C(Nc1cccc(-c2nncn2C2CC2)c1)c1cc(-n2cnc(C3CC3)c2)ccn1 (10 µM)
inactive: MAPK1 = 0 | MAPK4 = 0 | MAPKAPK2 = 0 | MKNK1 = 0 | NTRK2 = 0 | NTRK3 = 0 | PAK4 = 0 | PBK 0 | PDGFRB 0 | PDK1 = 0 | PDPK1 = 0 | PIK4CA 0 | PIK4CB 0 | PLK1 = 0 | PRKAA1 = 0 | PRKCA 0 | PTK2 = 0 | PTK2B 0 | RAF1 = 0 | [1] 0

O=C(c1ccc(Nc2nccc(-c3cc4ccccc4s3)n2)cc1)N1CCC(N2CCCC2)CC1 (2.5 µM)
inactive: MAPK1 = 0 | MAPK4 = 0 | MAPKAPK2 = 0 | MKNK1 = 0 | NTRK2 = 0 | NTRK3 = 0 | PAK4 = 0 | PBK 0 | PDGFRB 0 | PDK1 = 0 | PDPK1 = 0 | PIK4CA 0 | PIK4CB 0 | PLK1 = 0 | PRKAA1 = 0 | PRKCA 0 | PTK2 = 0 | PTK2B 0 | RAF1 = 0 | [1] 0

CCOc1ccccc1C=C1C(=O)Nc2ccccc21 (10 µM)
inactive: MAPK1 = 0 | MAPK4 = 0 | MAPKAPK2 = 0 | MKNK1 = 0 | NTRK2 = 0 | NTRK3 = 0 | PAK4 = 0 | PBK 0 | PDGFRB 0 | PDK1 = 0 | PDPK1 = 0 | PIK4CA 0 | PIK4CB 0 | PLK1 = 0 | PRKAA1 = 0 | PRKCA 0 | PTK2 = 0 | PTK2B 0 | RAF1 = 0 | [1] 0

Random excerpt: two entries already listed
O=C(Nc1cccc(-c2nncn2C2CC2)c1)c1cc(-n2cnc(C3CC3)c2)ccn1 (10 µM)
inactive: MAPK1 = 0 | MAPK4 = 0 | MAPKAPK2 = 0 | MKNK1 = 0 | NTRK2 = 0 | NTRK3 = 0 | PAK4 = 0 | PBK 0 | PDGFRB 0 | PDK1 = 0 | PDPK1 = 0 | PIK4CA 0 | PIK4CB 0 | PLK1 = 0 | PRKAA1 = 0 | PRKCA 0 | PTK2 = 0 | PTK2B 0 | RAF1 = 0 | [1] 0

CCOc1ccccc1C=C1C(=O)Nc2ccccc21 (10 µM)
inactive: MAPK1 = 0 | MAPK4 = 0 | MAPKAPK2 = 0 | MKNK1 = 0 | NTRK2 = 0 | NTRK3 = 0 | PAK4 = 0 | PBK 0 | PDGFRB 0 | PDK1 = 0 | PDPK1 = 0 | PIK4CA 0 | PIK4CB 0 | PLK1 = 0 | PRKAA1 = 0 | PRKCA 0 | PTK2 = 0 | PTK2B 0 | RAF1 = 0 | [1] 0

(list continues)

N#Cc1ccc(-c2c(-c3ncn[nH]3)sc(N3CCOCC3)c2C#N)c(F)c1 (10 µM)
inactive: MAPK1 = 0 | MAPK4 = 0 | MAPKAPK2 = 0 | MKNK1 = 0 | NTRK2 = 0 | NTRK3 = 0 | PAK4 = 0 | PBK 0 | PDGFRB 0 | PDK1 = 0 | PDPK1 = 0 | PIK4CA 0 | PIK4CB 0 | PLK1 = 0 | PRKAA1 = 0 | PRKCA 0 | PTK2 = 0 | PTK2B 0 | RAF1 = 0 | [1] 0

COc1cc(C(=O)N2CCC(N3CCN(C)CC3)CC2)ccc1Nc1ncc2c(n1)N(C)c1ccccc1C(=O)N2C (10 µM)
inactive: MAPK1 = 0 | MAPK4 = 0 | MAPKAPK2 = 0 | MKNK1 = 0 | NTRK2 = 0 | NTRK3 = 0 | PAK4 = 0 | PBK 0 | PDGFRB 0 | PDK1 = 0 | PDPK1 = 0 | PIK4CA 0 | PIK4CB 0 | PLK1 = 0 | PRKAA1 = 0 | PRKCA 0 | PTK2 = 0 | PTK2B 0 | RAF1 = 0 | [1] 0

N#C/C(=C\c1ccc2oc(=O)[nH]c2c1)C(=O)c1ccc(O)c(O)c1 (10 µM)
inactive: MAPK1 = 0 | MAPK4 = 0 | MAPKAPK2 = 0 | MKNK1 = 0 | NTRK2 = 0 | NTRK3 = 0 | PAK4 = 0 | PBK 0 | PDGFRB 0 | PDK1 = 0 | PDPK1 = 0 | PIK4CA 0 | PIK4CB 0 | PLK1 = 0 | PRKAA1 = 0 | PRKCA 0 | PTK2 = 0 | PTK2B 0 | RAF1 = 0 | [1] 0

C=CC(=O)Nc1cccc(Oc2nc(Nc3ccc(N4CCN(C)CC4)cc3)nc3ccoc23)c1 [Poseltinib] (10 µM)
inactive: MAPK1 = 0 | MAPK4 = 0 | MAPKAPK2 = 0 | MKNK1 = 0 | NTRK2 = 0 | NTRK3 = 0 | PAK4 = 0 | PBK 0 | PDGFRB 0 | PDK1 = 0 | PDPK1 = 0 | PIK4CA 0 | PIK4CB 0 | PLK1 = 0 | PRKAA1 = 0 | PRKCA 0 | PTK2 = 0 | PTK2B 0 | RAF1 = 0 | [1] 0

Cc1nc(NC(=O)NCCc2nnn(CCF)n2)sc1-c1ccc(S(C)(=O)=O)c(F)c1 (10 µM)
inactive: MAPK1 = 0 | MAPK4 = 0 | MAPKAPK2 = 0 | MKNK1 = 0 | NTRK2 = 0 | NTRK3 = 0 | PAK4 = 0 | PBK 0 | PDGFRB 0 | PDK1 = 0 | PDPK1 = 0 | PIK4CA 0 | PIK4CB 0 | PLK1 = 0 | PRKAA1 = 0 | PRKCA 0 | PTK2 = 0 | PTK2B 0 | RAF1 = 0 | [1] 0

CCCCOc1ccc(CC/C=C2\SC(=O)N(CCN)C2=O)cc1 [K145 (hydrochloride)] (2.5 µM)
inactive: MAPK1 = 0 | MAPK4 = 0 | MAPKAPK2 = 0 | MKNK1 = 0 | NTRK2 = 0 | NTRK3 = 0 | PAK4 = 0 | PBK 0 | PDGFRB 0 | PDK1 = 0 | PDPK1 = 0 | PIK4CA 0 | PIK4CB 0 | PLK1 = 0 | PRKAA1 = 0 | PRKCA 0 | PTK2 = 0 | PTK2B 0 | RAF1 = 0 | [1] 0

Cc1cccc(-c2[nH]ncc2-c2ccc3ncccc3n2)n1 (10 µM)
inactive: MAPK1 = 0 | MAPK4 = 0 | MAPKAPK2 = 0 | MKNK1 = 0 | NTRK2 = 0 | NTRK3 = 0 | PAK4 = 0 | PBK 0 | PDGFRB 0 | PDK1 = 0 | PDPK1 = 0 | PIK4CA 0 | PIK4CB 0 | PLK1 = 0 | PRKAA1 = 0 | PRKCA 0 | PTK2 = 0 | PTK2B 0 | RAF1 = 0 | [1] 0

C=CS(=O)(=O)c1ccc(Nc2nc(OCC3CCCCC3)c3[nH]cnc3n2)cc1 (2.5 µM)
inactive: MAPK1 = 0 | MAPK4 = 0 | MAPKAPK2 = 0 | MKNK1 = 0 | NTRK2 = 0 | NTRK3 = 0 | PAK4 = 0 | PBK 0 | PDGFRB 0 | PDK1 = 0 | PDPK1 = 0 | PIK4CA 0 | PIK4CB 0 | PLK1 = 0 | PRKAA1 = 0 | PRKCA 0 | PTK2 = 0 | PTK2B 0 | RAF1 = 0 | [1] 0

O=S(=O)(c1cccc2cnccc12)N1CCNCC1 (10 µM)
inactive: MAPK1 = 0 | MAPK4 = 0 | MAPKAPK2 = 0 | MKNK1 = 0 | NTRK2 = 0 | NTRK3 = 0 | PAK4 = 0 | PBK 0 | PDGFRB 0 | PDK1 = 0 | PDPK1 = 0 | PIK4CA 0 | PIK4CB 0 | PLK1 = 0 | PRKAA1 = 0 | PRKCA 0 | PTK2 = 0 | PTK2B 0 | RAF1 = 0 | [1] 0

Cn1ncc(Cl)c1-c1cc(C(=O)N[C@H](CN)Cc2ccc(F)c(F)c2)sc1Cl (10 µM)
inactive: MAPK1 = 0 | MAPK4 = 0 | MAPKAPK2 = 0 | MKNK1 = 0 | NTRK2 = 0 | NTRK3 = 0 | PAK4 = 0 | PBK 0 | PDGFRB 0 | PDK1 = 0 | PDPK1 = 0 | PIK4CA 0 | PIK4CB 0 | PLK1 = 0 | PRKAA1 = 0 | PRKCA 0 | PTK2 = 0 | PTK2B 0 | RAF1 = 0 | [1] 0

Cn1cc(-c2ccc(F)c(C(F)(F)F)c2)nc1C1CCN(c2ncnc3[nH]ncc23)CC1 (10 µM)
inactive: MAPK1 = 0 | MAPK4 = 0 | MAPKAPK2 = 0 | MKNK1 = 0 | NTRK2 = 0 | NTRK3 = 0 | PAK4 = 0 | PBK 0 | PDGFRB 0 | PDK1 = 0 | PDPK1 = 0 | PIK4CA 0 | PIK4CB 0 | PLK1 = 0 | PRKAA1 = 0 | PRKCA 0 | PTK2 = 0 | PTK2B 0 | RAF1 = 0 | [1] 0

C[C@@H]1COCCN1c1cc(C2([S@](C)(=N)=O)CC2)nc(-c2cc[nH]c3nccc2-3)n1 [Ceralasertib] (2.5 µM)
inactive: MAPK1 = 0 | MAPK4 = 0 | MAPKAPK2 = 0 | MKNK1 = 0 | NTRK2 = 0 | NTRK3 = 0 | PAK4 = 0 | PBK 0 | PDGFRB 0 | PDK1 = 0 | PDPK1 = 0 | PIK4CA 0 | PIK4CB 0 | PLK1 = 0 | PRKAA1 = 0 | PRKCA 0 | PTK2 = 0 | PTK2B 0 | RAF1 = 0 | [1] 0

O=C1NC(=O)C(=Cc2ccc3c(c2)OCO3)S1 (10 µM)
inactive: MAPK1 = 0 | MAPK4 = 0 | MAPKAPK2 = 0 | MKNK1 = 0 | NTRK2 = 0 | NTRK3 = 0 | PAK4 = 0 | PBK 0 | PDGFRB 0 | PDK1 = 0 | PDPK1 = 0 | PIK4CA 0 | PIK4CB 0 | PLK1 = 0 | PRKAA1 = 0 | PRKCA 0 | PTK2 = 0 | PTK2B 0 | RAF1 = 0 | [1] 0

COc1ccc(CN2C3CC2CN(c2ccc(-c4cc(OCC(C)(C)O)cn5ncc(C#N)c45)cn2)C3)cn1 [Selpercatinib] (10 µM)
inactive: MAPK1 = 0 | MAPK4 = 0 | MAPKAPK2 = 0 | MKNK1 = 0 | NTRK2 = 0 | NTRK3 = 0 | PAK4 = 0 | PBK 0 | PDGFRB 0 | PDK1 = 0 | PDPK1 = 0 | PIK4CA 0 | PIK4CB 0 | PLK1 = 0 | PRKAA1 = 0 | PRKCA 0 | PTK2 = 0 | PTK2B 0 | RAF1 = 0 | [1] 0

NCCCCCCNS(=O)(=O)c1cccc2c(Cl)cccc12 [W-7 (hydrochloride)] (10 µM)
inactive: MAPK1 = 0 | MAPK4 = 0 | MAPKAPK2 = 0 | MKNK1 = 0 | NTRK2 = 0 | NTRK3 = 0 | PAK4 = 0 | PBK 0 | PDGFRB 0 | PDK1 = 0 | PDPK1 = 0 | PIK4CA 0 | PIK4CB 0 | PLK1 = 0 | PRKAA1 = 0 | PRKCA 0 | PTK2 = 0 | PTK2B 0 | RAF1 = 0 | [1] 0
